Assay results as given in article PMC2681475.
Results are given in words; binding and its absence hold for the method and conditions named. Binding seen in cells or lysates may run through a third protein. Some results given as binding are weak or reduced against the parent protein; the word gives no strength. Blank lines part the entries; values can stand above or below the binder they belong to.

Amino acid sequences for entries named in this document (tags omitted).
UniProt P04792: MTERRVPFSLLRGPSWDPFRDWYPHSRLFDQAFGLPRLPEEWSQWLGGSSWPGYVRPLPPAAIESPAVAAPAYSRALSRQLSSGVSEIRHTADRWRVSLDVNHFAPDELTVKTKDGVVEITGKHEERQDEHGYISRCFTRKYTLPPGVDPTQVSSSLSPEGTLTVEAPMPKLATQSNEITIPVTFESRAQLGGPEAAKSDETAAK

Legend:
[1] = target: Heat shock protein 27 (human (endogenous in Hep3B, MHCC97L, MHCC97H)) (UniProt P04792); assay: co-IP; immunoprecipitation with anti-HSP27 antibody from lysates (1 mg total protein) of Hep3B, MHCC97L and MHCC97H cells, 4°C overnight, Protein G-Sepharose; western blot; 20 mM Tris pH 7.5, 150 mM NaCl, 1% Triton X-100
[2] = target: T1, IKKα (human (endogenous in Hep3B, MHCC97L, MHCC97H)) (UniProt O15111); assay: co-IP; immunoprecipitation with anti-IKKα antibody from lysates of Hep3B, MHCC97L and MHCC97H cells (HSP27, phospho-HSP27 blots) and of HSP27 RNAi, MOCK and untreated MHCC97H cells (IKKβ blot), 4°C overnight, Protein G-Sepharose; western blot; 20 mM Tris pH 7.5, 150 mM NaCl, 1% Triton X-100
T1 sequence: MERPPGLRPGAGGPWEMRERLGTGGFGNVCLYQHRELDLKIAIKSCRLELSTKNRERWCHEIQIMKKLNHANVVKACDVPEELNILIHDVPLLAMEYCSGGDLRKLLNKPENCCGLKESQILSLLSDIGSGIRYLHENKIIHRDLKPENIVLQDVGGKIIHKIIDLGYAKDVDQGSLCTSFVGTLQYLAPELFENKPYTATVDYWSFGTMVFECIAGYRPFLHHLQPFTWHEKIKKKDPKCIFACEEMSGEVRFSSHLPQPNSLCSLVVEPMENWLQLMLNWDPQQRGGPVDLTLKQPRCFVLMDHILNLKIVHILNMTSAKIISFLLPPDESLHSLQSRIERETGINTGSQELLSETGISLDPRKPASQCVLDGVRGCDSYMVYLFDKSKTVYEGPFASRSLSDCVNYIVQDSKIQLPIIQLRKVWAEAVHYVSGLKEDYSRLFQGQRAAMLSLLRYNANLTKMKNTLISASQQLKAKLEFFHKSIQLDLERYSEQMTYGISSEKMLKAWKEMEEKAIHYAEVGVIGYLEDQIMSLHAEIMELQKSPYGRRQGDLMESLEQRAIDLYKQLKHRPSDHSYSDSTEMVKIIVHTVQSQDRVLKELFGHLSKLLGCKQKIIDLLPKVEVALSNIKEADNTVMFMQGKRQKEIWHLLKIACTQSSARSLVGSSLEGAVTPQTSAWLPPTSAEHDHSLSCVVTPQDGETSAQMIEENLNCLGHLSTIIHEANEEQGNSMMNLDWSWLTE

[3] = target: Heat shock protein 27 (human (endogenous in Hep3B, MHCC97L, MHCC97H)), P04792; assay: co-IP; immunoprecipitation with anti-HSP27 antibody from lysates (1 mg total protein) of Hep3B, MHCC97L and MHCC97H cells, 4°C overnight, Protein G-Sepharose; western blot; 20 mM Tris pH 7.5, 150 mM NaCl, 1% Triton X-100; details: remark: other sources report otherwise

- binding [1]: binds
- binding [2]: binds
B1: IKKβ (protein, UniProt O14920 1-756)
chain: MSWSPSLTTQTCGAWEMKERLGTGGFGNVIRWHNQETGEQIAIKQCRQELSPRNRERWCLEIQIMRRLTHPNVVAARDVPEGMQNLAPNDLPLLAMEYCQGGDLRKYLNQFENCCGLREGAILTLLSDIASALRYLHENRIIHRDLKPENIVLQQGEQRLIHKIIDLGYAKELDQGSLCTSFVGTLQYLAPELLEQQKYTVTVDYWSFGTLAFECITGFRPFLPNWQPVQWHSKVRQKSEVDIVVSEDLNGTVKFSSSLPYPNNLNSVLAERLEKWLQLMLMWHPRQRGTDPTYGPNGCFKALDDILNLKLVHILNMVTGTIHTYPVTEDESLQSLKARIQQDTGIPEEDQELLQEAGLALIPDKPATQCISDGKLNEGHTLDMDLVFLFDNSKITYETQISPRPQPESVSCILQEPKRNLAFFQLRKVWGQVWHSIQTLKEDCNRLQQGQRAAMMNLLRNNSCLSKMKNSMASMSQQLKAKLDFFKTSIQIDLEKYSEQTEFGITSDKLLLAWREMEQAVELCGRENEVKLLVERMMALQTDIVDLQRSPMGRKQGGTLDDLEEQARELYRRLREKPRDQRTEGDSQEMVRLLLQAIQSFEKKVRVIYTQLSKTVVCKQKALELLPKVEEVVSLMNEDEKTVVRLQEKRQKELWNLLKIACSKVRGPVSGSPDSMNASRLSQPGQLMSQPSTASNSLPEPAKKSEELVAEAHNLCTLLENAIQDTVREQDQSFTALDWSWLQTEEEEHSCLEQAS

- binding [3]: binds
B2: IKKα, O15111 1-745 (protein)
chain: T1 sequence
